# In article doi:10.1101/2025.10.24.684417:
# Amino acid sequences for entries named in this document (tags omitted).
# UniProt Q13761: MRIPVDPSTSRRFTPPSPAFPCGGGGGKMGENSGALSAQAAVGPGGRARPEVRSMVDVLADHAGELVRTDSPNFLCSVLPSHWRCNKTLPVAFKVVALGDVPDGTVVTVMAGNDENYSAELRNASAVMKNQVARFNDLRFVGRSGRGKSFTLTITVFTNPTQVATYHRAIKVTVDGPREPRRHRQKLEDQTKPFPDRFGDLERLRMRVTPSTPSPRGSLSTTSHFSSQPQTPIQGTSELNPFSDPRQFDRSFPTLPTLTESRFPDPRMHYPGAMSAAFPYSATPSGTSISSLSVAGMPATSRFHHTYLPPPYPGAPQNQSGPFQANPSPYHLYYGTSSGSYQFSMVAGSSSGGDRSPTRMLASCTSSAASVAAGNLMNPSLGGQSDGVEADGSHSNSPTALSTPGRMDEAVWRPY
# Results are given in words; binding and its absence hold for the method and conditions named. Binding seen in cells or lysates may run through a third protein. Some entries that bind do so weakly or less than the wild type.
# B1: TLE5 (protein, UniProt Q08117 1-197)
# chain: MMFPQSRHSGSSHLPQQLKFTTSDSCDRIKDEFQLLQAQYHSLKLECDKLASEKSEMQRHYVMYYEMSYGLNIEMHKQAEIVKRLNGICAQVLPYLSQEHQQQVLGAIERAKQVTAPELNSIIRQQLQAHQLSQLQALALPLTPLPVGLQPPSLPAVSAGTGLLSLSALGSQAHLSKEDKNGHDGDTHQEDDGEKSD
# Target: RUNX3 (as detected in the proximity ligation assays) (UniProt Q13761)
# Assay: proximity ligation
binder,measurement,value
B1,binding,binds
